PubChem BioAssay AID504834 (National Center for Advancing Translational Sciences (NCATS), 2011)
Where “and” joins values, the source holds several entries; their conditions need not be identical. Identical values can stand only once. The campaign covered roughly 320,000 compounds. About 22,000 (6.9%) were called active. This list was built around the results that the source calls inconclusive (neither active nor inactive); the mix of calls is not that of the screen. Calls follow the shape of the dose curve; as a rule, active = well fitted inhibition curve with a large enough effect; inconclusive = small, poorly fitted or top-dose-only effect, or another doubt; inactive = no such curve, though single readings can be large or run the other way. A potency beside an inconclusive call is a rough fit, not a confirmed value.

Test: Primary qHTS for delayed death inhibitors of the malarial parasite plastid, 96 hour incubation
Details: P. falciparum luciferase reporter growth; series mostly up to 28.7 µM
In short: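 Delayed-death screen, second-generation endpoint: infected erythrocytes, 2% hematocrit, 0.05% parasitemia final; 96 hours at 37 C, 5% CO2; luciferase detection reagent; luminescence decrease equals reduced growth.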
Potency is read from the fitted curve at half-maximal effect.

Structure (SMILES) | Potency
CCOc1ccc(-c2nc3scc(-c4cccs4)c3c(=O)[nH]2)cc1 | inactive
COc1ccccc1NC(=O)C1CCCN1S(=O)(=O)c1cccc2nsnc12 (stereo not given) | inconclusive: 18.5 µM [inhibitor, single point]
CCCn1c(C)cc(-c2csc(NC(=O)CCc3nc4ccccc4c(=O)[nH]3)n2)c1C | inconclusive: 11.7 µM [inhibitor, single point]
CC(=O)NS(=O)(=O)c1ccc(NC(=O)c2ccc(S(=O)(=O)N3CCCC3)cc2)cc1 | inactive
O=c1nc(-c2ccccc2)nc(-c2ccccc2)[nH]1 | inactive
O=C(c1cccs1)n1nc(-c2ccccc2)nc1NCc1ccc(F)cc1 | inconclusive: 14.7 µM [inhibitor, single point]
O=C(CNS(=O)(=O)c1ccccc1)N1CCN(Cc2ccccc2)CC1 | inactive
CN(C)CCN1C(=O)c2ccccc2N(C)c2ccccc21 | active: 3.01 µM
O=C1NC[C@H](CC2CCCCC2)N(CCc2cccc(F)c2)C1=O | inconclusive: 18.5 µM [inhibitor, single point]
CC(=O)NN1C(=O)/C(=C2/Sc3ccc(Cl)cc3N2C)SC1=S | inactive
Cc1cc(C)c2c(CN3CCN(C/C=C/c4ccccc4)CC3)cc(=O)oc2c1 | active: 7.38 µM
CN(C)S(=O)(=O)c1ccc(N2CCCC2)c(C(=O)Nc2nc(-c3cc(F)ccc3F)cs2)c1 | inconclusive: 13.1 µM [inhibitor, single point]
O=C(CSc1nnc(C2CCCCC2)o1)Nc1ccccc1Cl | inactive
CN1/C(=C\C(=O)c2ccco2)c2ccccc2CC1(C)C | active: 9.28 µM
Cc1nc2c(C#N)cnn2c2c1CCN2CC1CCCO1 (stereo not given) | inconclusive: 16.5 µM [inhibitor, single point]
O=C(CSc1nnc(-c2cccc(S(=O)(=O)N3CCCC3)c2)n1-c1ccccc1)Nc1ccc(C(=O)O)cc1 | inactive
CCOC(=O)c1c(-n2cnnn2)sc(C)c1C | inconclusive: 3.29 µM [inhibitor, partial curve, poor fit]
O=C(NCC1CCCN(C(=O)Cc2ccccc2Cl)C1)c1ccc(F)cc1 (stereo not given) | inconclusive: 10.4 µM [inhibitor, single point]
O=C(C1CCCN(S(=O)(=O)c2cccs2)C1)N1CCc2ccccc2C1 (stereo not given) | inconclusive: 0.185 µM [inhibitor, full curve, poor fit]
NS(=O)(=O)c1ccc(CNc2ccc3ccccc3n2)cc1 | inactive
O=C(Nn1cnnc1)c1cc([N+](=O)[O-])cc([N+](=O)[O-])c1 | inconclusive: 1.47 µM [inhibitor, partial curve]
CC(Cc1nnc(SCC(=O)O)n1N)c1ccccc1 (stereo not given) | inactive
COc1cccc(N2CCN(C(=O)c3cccc(NC4=NC5CS(=O)(=O)CC5S4)c3)CC2)c1 (stereo not given) | inactive
O=C(NCc1ccccn1)Nc1cccc(NC(=O)NCc2ccccn2)c1 | inconclusive: 3.7 µM [inhibitor, single point]

Structure (SMILES) | Potency
CCN(C(=O)CSc1nnc(Nc2ccccc2C)s1)C1CCS(=O)(=O)C1 (stereo not given) | inconclusive: 3.7 µM [inhibitor, partial curve, poor fit]
COc1ccc(/C=N/NS(=O)(=O)c2ccc(F)cc2)cc1COc1cc(F)ccc1[N+](=O)[O-] | inconclusive: 11.7 µM [inhibitor, partial curve, poor fit]
COc1ccc(CNC(=O)c2ccc(SC)cc2OC)cc1 | inconclusive: 11.7 µM [inhibitor, partial curve, poor fit]
Cc1nc2ccccc2c(=O)n1NC(=O)c1ccccc1F | inconclusive: 0.738 µM [inhibitor, partial curve, poor fit]
CCOC(=O)c1ccc(Oc2cn[nH]c2-c2ccc(OCC(=O)NN)cc2O)cc1 | inconclusive: 2.33 µM [inhibitor, full curve, poor fit]
Cc1cc(C(=O)CN2C(=O)NC(C)(c3ccccc3)C2=O)c(C)n1CC1CCCO1 (stereo not given) | inactive
O=C(CN1CCCC1)Nc1ccc(Br)cc1 | inconclusive: 18.5 µM [inhibitor, single point]
CCOc1ccc(NC(=O)CCN2CCN(S(=O)(=O)c3ccc(Cl)cc3)CC2)cc1 | inconclusive: 11.7 µM [inhibitor, single point]
COc1ccccc1NC(=O)CN1C(=O)C(C)SC(C)C1=O (stereo not given) | inactive
O=C(O)Cn1ncn(-c2ccc(OC(F)(F)F)cc2)c1=O | inconclusive: 1.17 µM [inhibitor, partial curve, poor fit]
COc1ccc(-c2ccc(NS(=O)(=O)c3cccc([N+](=O)[O-])c3)cc2)nn1 | inconclusive: 13.1 µM [inhibitor, single point]
CN1CCN(CCCN2c3ccccc3Sc3ccc(C(F)(F)F)cc32)CC1 | active: 9.53 µM and active: 9.28 µM
O=C(O)c1sc2cc(C(F)(F)F)cnc2c1-c1ccccn1 | inconclusive: 0.117 µM [inhibitor, full curve, poor fit]
CCCOC(=O)c1cccc(Nc2nc(-c3cccnc3)nc3ccccc23)c1 | inactive
S=C1NC[C@H](c2ccccc2)N1CC1CCCCC1 | active: 8.28 µM
CCOC(=O)c1ccc(NS(=O)(=O)c2ccc3c(c2)CCCN3C(C)=O)cc1 | inconclusive: 0.415 µM [inhibitor, full curve, poor fit]
C=CCNC(=O)c1ccc(N(C)S(=O)(=O)c2ccc(OC)cc2)cc1 | inconclusive: 14.7 µM [inhibitor, partial curve, poor fit]
COc1cc(OC)c(OC)cc1/C=C1\CC(C)C/C(=C\c2cc(OC)c(OC)cc2OC)C1=O (stereo not given) | inconclusive: 16.5 µM [inhibitor, single point]
Cc1n[nH]c(=O)n1-c1cccc(C(F)(F)F)c1 | inactive
CCN(C(=O)c1cccc(S(=O)(=O)N(C)C)c1)C12CC3CC(CC(C3)C1)C2 | inconclusive: 16.5 µM [inhibitor, single point]
CS(=O)(=O)N1CCc2cc(C(=O)N3CCN(c4ccc(F)cc4)CC3)ccc21 | inactive
CCCn1c(SCC(=O)c2ccc3c(c2)OCCO3)nc2c1c(=O)n(C)c(=O)n2C | inconclusive: 20.8 µM [inhibitor, partial curve, poor fit]
Oc1ccccc1N=Cc1c(O)ccc2oc3c(c12)CCCC3 | inconclusive: 7.38 µM [inhibitor, single point]
CCOCCCNc1ccc(N2C(=O)CCCC2=O)cc1[N+](=O)[O-] | inactive

Structure (SMILES) | Potency
COc1ccc(S(=O)(=O)N2CCC(C(=O)N3CCCC3)CC2)cc1 | inconclusive: 0.294 µM [inhibitor, full curve]
COc1ccc(CCC(=O)N2CCN(S(=O)(=O)c3ccc(OC(F)(F)F)cc3)CC2)cc1 | active: 11.7 µM
CC(CCC(=O)O)C1CC[C@@]2(C)C3C(=O)CC4C(C)(C)C(O)CC[C@]4(C)C3C(=O)C[C@]12C (stereo not given in full) | inactive
COc1ccc(NC(=O)c2ccc(NCCN3C(=O)CCC3=O)c([N+](=O)[O-])c2)cc1 | inconclusive: 7.38 µM [inhibitor, partial curve, poor fit]
Cc1cccc(-n2c(C)cc(/C=N/NC(=O)c3ccc(CN4CCOCC4)cc3)c2C)c1 | inconclusive: 18.5 µM [inhibitor, single point]
Cc1ccccc1N | inconclusive: 2.33 µM [inhibitor, partial curve, poor fit]
O=C(Cn1cnc([N+](=O)[O-])n1)N/N=C/c1ccc(O)cc1O | inactive
Cc1ccsc1/C=N/NC(=O)c1cc(-c2ccncc2)nc2ccccc12 | inconclusive: 18.5 µM [inhibitor, single point]
Cc1ccc(Nc2ccc(C(=O)NC3CCCCC3)cn2)cc1 | inconclusive: 16.5 µM [inhibitor, single point]
c1ccc(CCNCCOc2ccccc2)cc1 | inconclusive: 2.33 µM [inhibitor, partial curve, poor fit]
COc1ccc2oc(C(=O)OCc3nnc(-c4ccccc4)o3)c(C)c2c1 | inactive
COc1ccc(C(C)=O)cc1CN1CC=C(c2ccccc2)CC1 | inconclusive: 10.4 µM [inhibitor, single point]
Cc1cc(NC(=O)CN2C(=O)NC(c3ccccc3)(c3ccc(C)c(C)c3)C2=O)no1 (stereo not given) | active: 4.15 µM
COc1ccc(CC(=O)Nc2nc3ccccc3[nH]2)cc1 | inactive
C=CCc1cccc2cc(C(=O)N3CCN(c4ccccn4)CC3)c(=O)oc12 | inactive
COc1ccc(/C=N/NC(=S)Nc2cc(C(F)(F)F)ccc2Cl)cc1 | inconclusive: 1.85 µM [inhibitor, partial curve, poor fit]
CS(=O)(=O)N(Cc1ccccc1)c1ccc(C(=O)Nc2cccnc2)cc1 | inconclusive: 10.4 µM [inhibitor, single point]
C=C(C)CSc1nnc(CCCCCNC(=O)OC(C)(C)C)o1 | inactive
Cn1nc(OC(=O)Nc2cccc(Cl)c2)cc1C(F)(F)F | inconclusive: 18.5 µM [inhibitor, single point]
Cc1ccc(NC(=O)CCCc2nc3ccccc3c(=O)[nH]2)c(Cl)c1 | inconclusive: 7.38 µM [inhibitor, single point]
COc1ccc(Cl)cc1NC(=S)NCCc1ccc(S(N)(=O)=O)cc1 | inconclusive: 18.5 µM [inhibitor, single point]
O=C(O)CCC(=O)N1CCN(c2ncccn2)CC1 | inconclusive: 0.0657 µM [inhibitor, full curve, poor fit]
